The subject of series [1] is Lsm1-7 complex + Pat1 317-754. Description: fluorescence polarization. As to conditions: unable to stimulate RNA binding, isotherm identical to L457A/E461K complex. For orientation: In fluorescence polarisation assays a small probe gives low polarisation when free and higher when bound to something large.
Series [2] has as its target T1, PatMC (Schizosaccharomyces pombe) (UniProt O42958).
T1 sequence (looked up, limits assumed): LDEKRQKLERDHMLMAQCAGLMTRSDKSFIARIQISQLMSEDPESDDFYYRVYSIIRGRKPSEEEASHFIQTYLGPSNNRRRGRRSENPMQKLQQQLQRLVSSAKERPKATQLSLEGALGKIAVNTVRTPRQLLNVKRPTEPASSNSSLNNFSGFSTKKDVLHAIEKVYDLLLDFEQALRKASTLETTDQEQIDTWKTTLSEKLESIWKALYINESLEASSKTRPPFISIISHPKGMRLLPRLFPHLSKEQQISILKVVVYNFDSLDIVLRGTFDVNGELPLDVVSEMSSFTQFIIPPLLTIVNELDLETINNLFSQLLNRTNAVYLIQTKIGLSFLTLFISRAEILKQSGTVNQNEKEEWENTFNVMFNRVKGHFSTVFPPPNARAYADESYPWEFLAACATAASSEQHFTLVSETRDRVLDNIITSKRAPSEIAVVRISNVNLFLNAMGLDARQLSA
In words: fluorescence polarization. As to conditions: PatMC alone, bound weakly.

The comparison behind a weaker result is the experiment's own reference, which may not be listed here. For some assays here: Protein sequences can lack the tags named with them. For some assays here: For at least one entry, the source does not settle the construct or the ends of the probe.

AAAAAAAAAAAAAAA [oligoA rA15]: the binding result in series [1] and in series [2] was “binds more weakly” each time.
